In the supplement of paper PMC6411743:
± gives the standard deviation of the averaged measurements. The list shows a part of the results.

Protein sequences, listed by entry. Tags and fused reporters are not part of them. Lines headed by an entry give the natural chain unless they say otherwise; changes in a name come on top.
UniProt O75607: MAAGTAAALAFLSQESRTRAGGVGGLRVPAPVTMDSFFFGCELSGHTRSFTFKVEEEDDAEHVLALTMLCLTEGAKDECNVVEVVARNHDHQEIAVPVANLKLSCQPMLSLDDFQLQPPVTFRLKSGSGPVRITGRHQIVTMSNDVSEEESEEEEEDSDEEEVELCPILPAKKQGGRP
UniProt P00966: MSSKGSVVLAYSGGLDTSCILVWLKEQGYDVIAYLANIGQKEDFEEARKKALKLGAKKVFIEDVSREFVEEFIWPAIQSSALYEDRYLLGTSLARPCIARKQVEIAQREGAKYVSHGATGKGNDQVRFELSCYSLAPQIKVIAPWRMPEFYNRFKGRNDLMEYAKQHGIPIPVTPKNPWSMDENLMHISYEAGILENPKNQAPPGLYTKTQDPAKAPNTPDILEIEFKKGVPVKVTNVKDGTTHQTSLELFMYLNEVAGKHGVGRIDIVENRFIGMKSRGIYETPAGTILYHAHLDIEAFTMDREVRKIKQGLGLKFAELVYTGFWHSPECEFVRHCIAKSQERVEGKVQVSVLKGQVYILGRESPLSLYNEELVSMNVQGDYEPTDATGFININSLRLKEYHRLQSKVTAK
UniProt O95155, whole entry: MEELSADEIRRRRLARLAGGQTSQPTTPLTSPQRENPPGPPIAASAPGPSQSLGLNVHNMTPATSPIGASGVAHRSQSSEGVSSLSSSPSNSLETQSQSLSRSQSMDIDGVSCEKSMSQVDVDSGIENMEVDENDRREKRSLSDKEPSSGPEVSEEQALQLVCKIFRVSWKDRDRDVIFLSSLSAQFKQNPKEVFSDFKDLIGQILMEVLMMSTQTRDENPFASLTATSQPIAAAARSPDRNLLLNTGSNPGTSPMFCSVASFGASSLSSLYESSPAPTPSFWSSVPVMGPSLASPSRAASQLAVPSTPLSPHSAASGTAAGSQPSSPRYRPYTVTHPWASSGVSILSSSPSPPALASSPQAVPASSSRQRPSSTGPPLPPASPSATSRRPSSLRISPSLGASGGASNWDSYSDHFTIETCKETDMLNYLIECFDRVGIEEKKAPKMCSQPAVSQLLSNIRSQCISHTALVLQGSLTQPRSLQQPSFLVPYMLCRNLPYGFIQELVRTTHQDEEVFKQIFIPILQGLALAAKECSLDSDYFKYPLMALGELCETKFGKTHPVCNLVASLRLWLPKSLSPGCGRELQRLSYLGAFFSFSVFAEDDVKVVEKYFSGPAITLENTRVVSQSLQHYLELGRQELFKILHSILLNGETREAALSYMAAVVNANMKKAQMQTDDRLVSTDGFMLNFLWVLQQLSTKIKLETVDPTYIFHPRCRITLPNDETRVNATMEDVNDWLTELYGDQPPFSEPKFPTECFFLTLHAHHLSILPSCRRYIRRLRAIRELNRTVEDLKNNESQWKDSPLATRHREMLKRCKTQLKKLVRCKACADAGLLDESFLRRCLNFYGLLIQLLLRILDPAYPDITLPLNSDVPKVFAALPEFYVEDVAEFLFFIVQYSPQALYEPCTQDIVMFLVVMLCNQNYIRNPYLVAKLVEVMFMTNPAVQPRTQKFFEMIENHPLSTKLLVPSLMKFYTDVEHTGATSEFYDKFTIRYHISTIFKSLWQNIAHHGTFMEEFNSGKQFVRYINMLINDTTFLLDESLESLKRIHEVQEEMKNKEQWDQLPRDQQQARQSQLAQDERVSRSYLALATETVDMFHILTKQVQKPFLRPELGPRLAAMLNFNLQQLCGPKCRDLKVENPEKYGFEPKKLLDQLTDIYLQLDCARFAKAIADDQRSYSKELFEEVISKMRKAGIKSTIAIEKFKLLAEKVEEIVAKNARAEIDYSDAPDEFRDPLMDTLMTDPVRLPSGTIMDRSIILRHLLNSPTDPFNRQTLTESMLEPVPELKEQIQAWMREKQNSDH
UniProt O75398: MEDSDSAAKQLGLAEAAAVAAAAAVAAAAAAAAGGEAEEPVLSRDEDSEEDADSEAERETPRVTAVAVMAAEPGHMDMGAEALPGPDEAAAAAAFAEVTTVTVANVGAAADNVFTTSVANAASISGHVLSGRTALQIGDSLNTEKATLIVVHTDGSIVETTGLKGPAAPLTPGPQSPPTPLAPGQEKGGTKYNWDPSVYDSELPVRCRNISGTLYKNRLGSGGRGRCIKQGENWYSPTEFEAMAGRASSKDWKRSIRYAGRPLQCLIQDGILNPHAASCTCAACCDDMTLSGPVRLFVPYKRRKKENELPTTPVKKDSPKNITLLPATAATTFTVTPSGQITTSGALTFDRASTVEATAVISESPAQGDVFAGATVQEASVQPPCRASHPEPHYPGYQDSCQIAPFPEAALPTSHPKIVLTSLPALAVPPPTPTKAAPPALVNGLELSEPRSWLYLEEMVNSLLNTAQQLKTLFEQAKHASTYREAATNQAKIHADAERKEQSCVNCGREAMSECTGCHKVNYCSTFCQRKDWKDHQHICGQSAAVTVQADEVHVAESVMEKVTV
UniProt P00813: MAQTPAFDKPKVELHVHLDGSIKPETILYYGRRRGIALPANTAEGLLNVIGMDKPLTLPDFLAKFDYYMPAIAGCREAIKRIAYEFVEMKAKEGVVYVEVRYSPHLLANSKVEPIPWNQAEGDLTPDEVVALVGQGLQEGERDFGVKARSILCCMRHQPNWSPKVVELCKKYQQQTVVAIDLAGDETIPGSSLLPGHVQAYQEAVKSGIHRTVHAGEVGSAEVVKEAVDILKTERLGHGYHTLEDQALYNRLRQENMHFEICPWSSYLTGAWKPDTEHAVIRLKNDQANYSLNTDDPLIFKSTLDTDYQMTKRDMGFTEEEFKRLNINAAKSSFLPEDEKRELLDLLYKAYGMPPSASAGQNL
UniProt O75223: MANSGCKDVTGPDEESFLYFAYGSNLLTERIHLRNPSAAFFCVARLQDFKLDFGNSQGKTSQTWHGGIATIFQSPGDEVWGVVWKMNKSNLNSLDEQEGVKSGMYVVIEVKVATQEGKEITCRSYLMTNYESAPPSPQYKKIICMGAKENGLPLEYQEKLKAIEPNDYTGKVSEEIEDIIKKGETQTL
UniProt O75348, whole entry: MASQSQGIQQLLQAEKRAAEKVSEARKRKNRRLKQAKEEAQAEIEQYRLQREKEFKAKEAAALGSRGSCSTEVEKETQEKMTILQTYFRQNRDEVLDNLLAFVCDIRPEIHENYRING
UniProt O95202: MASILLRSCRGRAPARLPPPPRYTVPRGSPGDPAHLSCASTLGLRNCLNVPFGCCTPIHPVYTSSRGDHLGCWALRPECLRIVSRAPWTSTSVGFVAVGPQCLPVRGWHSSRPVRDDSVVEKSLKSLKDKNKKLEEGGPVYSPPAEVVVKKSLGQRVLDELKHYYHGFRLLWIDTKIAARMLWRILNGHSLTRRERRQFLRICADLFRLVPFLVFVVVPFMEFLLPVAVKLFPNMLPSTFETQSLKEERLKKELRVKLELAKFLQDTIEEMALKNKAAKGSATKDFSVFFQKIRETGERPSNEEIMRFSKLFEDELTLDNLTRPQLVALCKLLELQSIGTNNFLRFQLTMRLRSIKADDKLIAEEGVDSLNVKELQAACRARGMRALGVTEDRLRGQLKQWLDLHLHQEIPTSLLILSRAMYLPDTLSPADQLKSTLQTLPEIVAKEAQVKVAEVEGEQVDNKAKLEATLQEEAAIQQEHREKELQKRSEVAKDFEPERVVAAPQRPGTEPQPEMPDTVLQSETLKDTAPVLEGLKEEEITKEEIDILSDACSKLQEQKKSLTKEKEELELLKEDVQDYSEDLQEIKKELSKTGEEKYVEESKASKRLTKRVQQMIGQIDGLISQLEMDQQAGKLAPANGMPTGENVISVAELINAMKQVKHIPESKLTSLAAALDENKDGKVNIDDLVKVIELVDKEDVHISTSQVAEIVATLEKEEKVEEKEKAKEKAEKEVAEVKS
UniProt O95861: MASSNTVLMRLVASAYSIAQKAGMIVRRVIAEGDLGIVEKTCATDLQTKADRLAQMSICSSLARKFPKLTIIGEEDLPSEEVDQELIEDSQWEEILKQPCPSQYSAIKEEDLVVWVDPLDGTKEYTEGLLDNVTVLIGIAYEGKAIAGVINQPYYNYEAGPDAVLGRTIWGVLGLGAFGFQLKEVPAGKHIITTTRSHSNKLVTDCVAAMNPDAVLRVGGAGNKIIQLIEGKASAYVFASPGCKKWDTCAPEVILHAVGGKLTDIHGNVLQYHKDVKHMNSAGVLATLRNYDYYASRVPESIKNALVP
UniProt O94804: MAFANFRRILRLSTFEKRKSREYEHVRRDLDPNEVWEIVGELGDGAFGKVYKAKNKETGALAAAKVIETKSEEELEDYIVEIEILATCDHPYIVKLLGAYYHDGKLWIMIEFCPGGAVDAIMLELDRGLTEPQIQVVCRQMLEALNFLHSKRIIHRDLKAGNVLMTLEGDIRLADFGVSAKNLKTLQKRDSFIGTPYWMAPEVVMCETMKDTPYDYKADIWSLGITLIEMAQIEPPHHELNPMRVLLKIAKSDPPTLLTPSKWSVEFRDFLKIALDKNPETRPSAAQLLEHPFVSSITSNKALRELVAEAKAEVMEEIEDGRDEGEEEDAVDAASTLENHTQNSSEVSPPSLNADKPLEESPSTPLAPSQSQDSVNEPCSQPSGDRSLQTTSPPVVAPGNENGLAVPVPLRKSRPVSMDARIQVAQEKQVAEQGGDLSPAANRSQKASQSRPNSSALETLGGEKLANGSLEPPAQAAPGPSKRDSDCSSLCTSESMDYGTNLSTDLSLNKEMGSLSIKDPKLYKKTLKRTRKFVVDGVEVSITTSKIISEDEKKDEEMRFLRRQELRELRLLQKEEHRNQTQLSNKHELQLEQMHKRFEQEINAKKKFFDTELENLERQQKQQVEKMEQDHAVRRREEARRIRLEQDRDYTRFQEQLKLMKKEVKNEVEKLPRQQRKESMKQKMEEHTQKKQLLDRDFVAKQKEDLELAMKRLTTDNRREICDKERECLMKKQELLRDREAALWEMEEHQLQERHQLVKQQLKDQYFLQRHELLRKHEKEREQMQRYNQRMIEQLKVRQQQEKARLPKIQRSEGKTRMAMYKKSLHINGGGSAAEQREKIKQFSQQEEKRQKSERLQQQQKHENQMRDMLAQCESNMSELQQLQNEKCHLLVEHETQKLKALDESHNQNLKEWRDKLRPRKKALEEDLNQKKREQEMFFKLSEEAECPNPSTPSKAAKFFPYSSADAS
UniProt O95169, whole entry: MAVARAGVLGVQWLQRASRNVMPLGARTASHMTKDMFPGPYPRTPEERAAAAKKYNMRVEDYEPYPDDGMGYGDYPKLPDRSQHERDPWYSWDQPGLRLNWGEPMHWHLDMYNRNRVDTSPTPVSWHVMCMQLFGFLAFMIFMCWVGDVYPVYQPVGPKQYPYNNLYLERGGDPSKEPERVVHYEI
UniProt O75177, whole entry: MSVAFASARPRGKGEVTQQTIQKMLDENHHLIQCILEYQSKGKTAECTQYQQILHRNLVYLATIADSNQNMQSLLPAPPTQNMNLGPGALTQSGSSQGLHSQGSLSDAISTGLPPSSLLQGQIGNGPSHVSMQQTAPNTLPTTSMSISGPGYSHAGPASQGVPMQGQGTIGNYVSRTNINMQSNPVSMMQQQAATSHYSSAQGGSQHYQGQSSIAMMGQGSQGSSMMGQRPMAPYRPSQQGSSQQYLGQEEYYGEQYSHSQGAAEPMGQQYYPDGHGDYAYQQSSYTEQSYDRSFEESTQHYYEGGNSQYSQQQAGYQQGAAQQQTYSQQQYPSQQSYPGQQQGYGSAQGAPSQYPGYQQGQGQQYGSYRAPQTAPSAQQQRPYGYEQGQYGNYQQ
UniProt O75396: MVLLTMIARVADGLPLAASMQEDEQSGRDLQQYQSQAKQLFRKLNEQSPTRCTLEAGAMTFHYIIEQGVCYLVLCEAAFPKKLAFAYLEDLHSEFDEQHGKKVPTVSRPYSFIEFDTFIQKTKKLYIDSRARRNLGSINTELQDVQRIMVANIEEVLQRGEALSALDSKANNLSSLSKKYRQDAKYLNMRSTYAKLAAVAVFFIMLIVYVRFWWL
UniProt O75494: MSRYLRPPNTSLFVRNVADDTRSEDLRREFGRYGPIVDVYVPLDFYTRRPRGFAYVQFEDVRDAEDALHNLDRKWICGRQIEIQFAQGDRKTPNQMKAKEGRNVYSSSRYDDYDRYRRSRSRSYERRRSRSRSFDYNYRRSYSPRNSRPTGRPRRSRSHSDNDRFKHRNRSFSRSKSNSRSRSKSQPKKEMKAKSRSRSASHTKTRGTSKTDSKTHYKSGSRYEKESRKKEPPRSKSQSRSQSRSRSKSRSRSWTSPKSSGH

Compound: Nc1nc2c(ncn2[C@@H]2O[C@H](COP(=O)(O)OP(=O)(O)OP(=O)(O)O)[C@@H](O)[C@H]2O)c(=O)[nH]1 [guanosine triphosphate]
Experiment: NP40-soluble protein abundance relative to vehicle (solubility fold change) (ratio); higher = more soluble protein in presence of GTP
In short: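 Eight concentrations, 0.1 to 10 mM, were tested on Jurkat crude lysate for 10 min at room temperature and then 3 min at 37 °C, in three independent experiments. The lysate was solubilised with 0.8% NP40 and benzonase, ultracentrifuged, and the supernatant TMT-labelled for LC-MS/MS. Each value is the fold change against the detergent-processed vehicle in its own replicate, from vsn-normalised intensities.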

| Target | NP40-soluble protein abundance (concentration: 0.1mM) | NP40-soluble protein abundance (concentration: 0.5mM) | NP40-soluble protein abundance (concentration: 1mM) | NP40-soluble protein abundance (concentration: 2mM) | NP40-soluble protein abundance (concentration: 4mM) | NP40-soluble protein abundance (concentration: 6mM) | NP40-soluble protein abundance (concentration: 8mM) | NP40-soluble protein abundance (concentration: 10mM) |
| --- | --- | --- | --- | --- | --- | --- | --- | --- |
| NPM3 (UniProt O75607) | 1.04 ± 0.13 | 1.05 ± 0.038 | 1.08 ± 0.095 | 1.02 ± 0.065 | 1.05 ± 0.11 | 1.08 ± 0.048 | 1.15 ± 0.077 | 1.09 ± 0.099 |
| POLB (UniProt P06746) | 0.963 ± 0.065 | 1.01 ± 0.057 | 1.04 ± 0.049 | 1.05 ± 0.065 | 1.09 ± 0.053 | 1.14 ± 0.042 | 1.17 ± 0.092 | 1.19 ± 0.051 |
| ASS1 (UniProt P00966) | 1.06 ± 0.083 | 1.08 ± 0.1 | 1.02 ± 0.027 | 0.991 ± 0.04 | 1.02 ± 0.05 | 0.976 ± 0.029 | 0.96 ± 0.063 | 0.94 ± 0.065 |
| UniProt O95155 and related entries | 1.09 ± 0.054 | 1.04 ± 0.068 | 1.06 ± 0.057 | 0.999 ± 0.03 | 1.04 ± 0.047 | 1 ± 0.059 | 1.02 ± 0.077 | 0.969 ± 0.022 |
| UniProt O75398 and related entries | 1.02 ± 0.089 | 1.03 ± 0.11 | 1 ± 0.095 | 1.04 ± 0.16 | 0.967 ± 0.12 | 1.05 ± 0.16 | 1.02 ± 0.051 | 0.968 ± 0.17 |
| ADA (UniProt P00813) | 0.955 ± 0.28 | 0.879 ± 0.16 | 0.898 ± 0.27 | 0.824 ± 0.15 | 0.848 ± 0.25 | 0.807 ± 0.15 | 0.831 ± 0.28 | 0.781 ± 0.12 |
| GGCT (UniProt O75223) | 0.938 ± 0.025 | 0.98 ± 0.05 | 0.898 ± 0.062 | 0.842 ± 0.068 | 0.817 ± 0.084 | 0.872 ± 0.1 | 0.846 ± 0.078 | 0.829 ± 0.089 |
| ATP6V1G1 (UniProt O75348) | 0.985 ± 0.14 | 0.972 ± 0.044 | 1.03 ± 0.02 | 1.08 ± 0.066 | 1.02 ± 0.031 | 1.04 ± 0.019 | 1.06 ± 0.11 | 1.1 ± 0.035 |
| LETM1 (UniProt O95202) | 0.897 ± 0.019 | 0.877 ± 0.033 | 0.959 ± 0.03 | 0.927 ± 0.065 | 0.939 ± 0.057 | 0.947 ± 0.069 | 0.964 ± 0.061 | 0.984 ± 0.044 |
| UniProt O95861 and related entries | 0.944 ± 0.02 | 0.9416 ± 0.0021 | 0.875 ± 0.024 | 0.862 ± 0.035 | 0.839 ± 0.043 | 0.843 ± 0.05 | 0.812 ± 0.067 | 0.816 ± 0.07 |
| UniProt O94804 | 0.965 ± 0.05 | 0.959 ± 0.051 | 0.952 ± 0.057 | 0.922 ± 0.079 | 0.899 ± 0.088 | 0.918 ± 0.07 | 0.93 ± 0.037 | 0.904 ± 0.057 |
| UniProt O95169 and related entries | 1.12 ± 0.18 | 1.02 ± 0.027 | 1.26 ± 0.2 | 1.32 ± 0.055 | 1.22 ± 0.037 | 1.259 ± 0.0062 | 1.33 ± 0.24 | 1.54 ± 0.24 |
| SS18L1 (UniProt O75177) | 0.937 ± 0.036 | 1.03 ± 0.064 | 1.11 ± 0.061 | 1.13 ± 0.11 | 1.2 ± 0.15 | 1.19 ± 0.17 | 1.22 ± 0.17 | 1.22 ± 0.25 |
| UniProt O75396 | 0.915 ± 0.073 | 0.887 ± 0.076 | 0.874 ± 0.067 | 0.837 ± 0.058 | 0.853 ± 0.057 | 0.854 ± 0.041 | 0.817 ± 0.047 | 0.827 ± 0.074 |
| UniProt O75494 and related entries | 1.01 ± 0.049 | 1.1 ± 0.043 | 1.17 ± 0.081 | 1.18 ± 0.095 | 1.17 ± 0.11 | 1.16 ± 0.11 | 1.17 ± 0.11 | 1.22 ± 0.14 |

Rewritten tab-delimited: entries from further up.
Target	NP40-soluble protein abundance (concentration: 0.1mM)	NP40-soluble protein abundance (concentration: 0.5mM)	NP40-soluble protein abundance (concentration: 1mM)	NP40-soluble protein abundance (concentration: 2mM)	NP40-soluble protein abundance (concentration: 4mM)	NP40-soluble protein abundance (concentration: 6mM)	NP40-soluble protein abundance (concentration: 8mM)	NP40-soluble protein abundance (concentration: 10mM)
NPM3 (UniProt O75607)	1.04 ± 0.13	1.05 ± 0.038	1.08 ± 0.095	1.02 ± 0.065	1.05 ± 0.11	1.08 ± 0.048	1.15 ± 0.077	1.09 ± 0.099
POLB (UniProt P06746)	0.963 ± 0.065	1.01 ± 0.057	1.04 ± 0.049	1.05 ± 0.065	1.09 ± 0.053	1.14 ± 0.042	1.17 ± 0.092	1.19 ± 0.051
